Data on 1 molecule can be found in publication doi:10.1101/2021.05.19.444882.

Amino acid sequences for entries named in this document (tags omitted). Residues count along the entry.
UniProt P78310, residues 20-365: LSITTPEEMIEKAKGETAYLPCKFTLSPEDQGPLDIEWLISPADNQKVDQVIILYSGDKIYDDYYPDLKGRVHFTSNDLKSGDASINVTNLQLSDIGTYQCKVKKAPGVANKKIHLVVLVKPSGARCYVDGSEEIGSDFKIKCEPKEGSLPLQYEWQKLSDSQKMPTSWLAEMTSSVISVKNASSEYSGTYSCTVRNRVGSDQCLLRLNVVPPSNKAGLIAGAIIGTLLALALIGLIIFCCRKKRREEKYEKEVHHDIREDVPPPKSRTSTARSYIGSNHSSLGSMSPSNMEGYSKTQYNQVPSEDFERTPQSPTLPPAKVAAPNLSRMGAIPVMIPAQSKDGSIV

These are yes or no findings as the source states them, for the method shown. Some entries that bind do so weakly or less than the wild type.

The test concerns the target coxsackie and adenovirus receptor (CAR) (UniProt P78310). Nature of the test: flow cytometry on cells.

B1: HAdV-C5 fiber-knob protein (domain or fragment, UniProt P11818 386-581)
chain: TGAITVGNKNNDKLTLWTTPAPSPNCRLNAEKDAKLTLVLTKCGSQILATVSVLAVKGSLAPISGTVQSAHLIIRFDENGVLLNNSFLDPEYWNFRNGDLTEGTAYTNAVGFMPNLSAYPKSHGKTAKSNIVSQVYLNGDKTKPVTLTITLNGTQETGDTTPSAYSMSFSWDWSGHNYINEIFATSSYTFSYIAQE
Take B1: the binding entry is “binds”.
